# Measured values reported in the supplement of paper PMC11006884.
# The list shows a part of the results, in another mix than the full data.
# Compound: COC(=O)C#Cc1ccccc1 [methyl 3-phenylpropiolate]
# Assay: log2 ratio of iodoacetamide-alkyne labeling of the cysteine site, DMSO over compound (competition); higher = stronger covalent engagement of the cysteine by the compound, active = 1 or more
# Settings: 500 µM; treatment time 1 h; system: HEK293T cell lysate
# Outline: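 Reporter intensities give each cysteine's log2 competition ratio as the mean of control channels over the mean of compound channels. The samples were HEK293T lysate (2 mg/mL) given vehicle or electrophile (500 µM, 1 h, ambient temperature), then iodoacetamide alkyne (1 h), followed by click coupling to sCIP-TMT reagents, pooling, trypsin digestion overnight at 37 °C, streptavidin enrichment, acid elution, Orbitrap Eclipse LC-MS/MS with FAIMS and FragPipe quantification. Duplicate channels and three replicates were run, and cysteines quantified in only one replicate were discarded.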
row,Target,log2 ratio of iodoacetamide-alkyne labeling
1,PSME1 C22 (UniProt Q06323),inactive: 0.8
2,GRSF1 C29 (UniProt Q12849),inactive: 0.434
3,EP300 C1163 (UniProt Q09472),inactive: 0.615
4,NOTCH2 C1357 (UniProt Q04721),active: 1.55
5,PRDX1 C83 (UniProt Q06830),inactive: 0.229
6,NOTCH2 C2085 (UniProt Q04721),inactive: 0.208
7,VAC14 C719 (UniProt Q08AM6),inactive: 0.526
8,TP53BP1 C101 (UniProt Q12888),inactive: 0.242
9,COASY C144 (UniProt Q13057),active: 1.16
10,UniProt Q12824_C147,inactive: 0.35
11,CDC20 C364 (UniProt Q12834),active: 1.22
12,EHHADH C559 (UniProt Q08426),inactive: 0.111
13,BPTF C1357 (UniProt Q12830),inactive: 0.53
14,TRAF2 C112 (UniProt Q12933),inactive: 0.213
15,UniProt Q03188_C612,inactive: 0.626
16,TP53BP1 C1178 (UniProt Q12888),inactive: 0.529
17,UniProt Q05655_C127,inactive: 0.196
18,UniProt Q02750_C207,inactive: 0.0374
19,UniProt Q07955_C148,inactive: 0.0351

row,Target,log2 ratio of iodoacetamide-alkyne labeling
1,PPAT C496 (UniProt Q06203),inactive: 0.238
2,GFPT1 C55 (UniProt Q06210),inactive: 0.387
3,PSMD2 C779 (UniProt Q13200),inactive: -0.00697
4,UniProt Q13242_C138,inactive: 0.112
5,POLE C2148 (UniProt Q07864),inactive: 0.264
6,NCBP1 C36 (UniProt Q09161),inactive: 0.318
7,EIF4G1 C662 (UniProt Q04637),inactive: 0.118
8,ACACA C1230 (UniProt Q13085),inactive: 0.772
9,HNRNPA0 C7 (UniProt Q13151),inactive: 0.00321
10,OS9 C246 (UniProt Q13438),inactive: 0.57
11,NME3 C158 (UniProt Q13232),inactive: 0.955
12,DHX9 C469 (UniProt Q08211),inactive: 0.355
13,TBL3 C696 (UniProt Q12788),inactive: 0.373
14,C1QBP C186 (UniProt Q07021),inactive: 0.23
15,IK C263 (UniProt Q13123),inactive: 0.289
16,NUP160 C1003 (UniProt Q12769),inactive: 0.385
17,SCAP C875 (UniProt Q12770),inactive: 0.46
18,BPTF C20 (UniProt Q12830),inactive: 0.165

# For reference, some entries already given:
row,Target,log2 ratio of iodoacetamide-alkyne labeling
12,DHX9 C469 (UniProt Q08211),inactive: 0.355
13,TBL3 C696 (UniProt Q12788),inactive: 0.373
